In PMC12561473 one finds binding data, which are given here for two molecules.

The chains behind the UniProt entries cited, without tags or fusion partners.
UniProt Q99873: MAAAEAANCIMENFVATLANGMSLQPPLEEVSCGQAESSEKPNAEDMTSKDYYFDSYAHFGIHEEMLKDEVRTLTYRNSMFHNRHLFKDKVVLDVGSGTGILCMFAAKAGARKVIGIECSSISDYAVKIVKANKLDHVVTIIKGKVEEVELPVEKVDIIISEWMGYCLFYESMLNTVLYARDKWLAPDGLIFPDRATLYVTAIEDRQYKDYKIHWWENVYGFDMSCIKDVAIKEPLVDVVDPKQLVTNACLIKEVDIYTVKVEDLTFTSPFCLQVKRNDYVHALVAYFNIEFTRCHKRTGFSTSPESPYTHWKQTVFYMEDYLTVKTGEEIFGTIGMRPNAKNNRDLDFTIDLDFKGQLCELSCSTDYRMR

One test deals with T1, GFP-WT-ATG4B (UniProt Q9Y4P1).
T1 sequence: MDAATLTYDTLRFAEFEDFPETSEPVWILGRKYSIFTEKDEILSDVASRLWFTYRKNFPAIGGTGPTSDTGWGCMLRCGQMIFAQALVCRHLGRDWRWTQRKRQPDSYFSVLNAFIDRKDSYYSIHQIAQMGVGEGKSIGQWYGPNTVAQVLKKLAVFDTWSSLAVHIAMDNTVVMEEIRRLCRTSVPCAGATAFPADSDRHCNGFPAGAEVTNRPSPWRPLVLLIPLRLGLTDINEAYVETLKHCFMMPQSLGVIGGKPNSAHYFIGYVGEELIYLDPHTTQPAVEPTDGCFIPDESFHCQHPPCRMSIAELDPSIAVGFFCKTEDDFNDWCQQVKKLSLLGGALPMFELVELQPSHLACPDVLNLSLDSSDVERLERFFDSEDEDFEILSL
Briefly: co-IP; GFP-tagged ATG4B proteins precipitated with GFP-Trap beads from cell lysates in NP-40 buffer (50 mM Tris-HCl pH 7.4, 150 mM NaCl, 1% NP-40, 1 mM EDTA), overnight at 4 °C; blot for PRMT1; GFP-WT-ATG4B cells with or without starvation for 4 h.

Another test addresses GST-PRMT1-GFP (UniProt Q99873). Briefly: pull-down; in vitro GST pull-down; purified GST-PRMT1-GFP as bait, ATG4B from cell lysates; blot for ATG4B; only the target purified.

No constants are given. Whether binding was seen depends on the method and setting. Binding seen in cells or lysates may run through a third protein. Some binding calls cover weakened binding; strength is not graded here. For some assays here: Tags and fused reporters may be left off the sequences shown.

As for “PRMT1 (endogenous) (from UniProt Q99873 1-371)”, the binding result in the test with GFP-WT-ATG4B is given as “binds”.

B1: ATG4B from cell lysates (protein, UniProt Q9Y4P1 1-393)
chain: T1 sequence
As for B1, the binding result in the test with GST-PRMT1-GFP was “binds”.
